Measurements reported in US9593149B2 (Novo Nordisk A/S, priority 2014, dated 2017).

What was measured:
[1] = general procedure: Fmoc solid-phase peptide synthesis; Tentagel S RAM (about 0.25 mmol/g) or PAL-ChemMatrix (about 0.43 mmol/g) or PAL AM (0.5-0.75 mmol/g); DIC/HOAt or DIC/Oxyma; settings: whole synthesis
[2] = general procedure: Fmoc solid-phase peptide synthesis; PAL AM resin; DIC/HOAt or DIC/Oxyma; settings: whole synthesis, scale 400 mg resin (0.61 mmol/g)
[3] = general procedure: Fmoc solid-phase peptide synthesis; PAL ChemMatrix resin; DIC/HOAt or DIC/Oxyma; settings: whole synthesis, scale 600 mg resin (0.43 mmol/g)

Substance: H-EASELSTAALGRLSAELHELATLPRTETGPESP-NH2
- crude purity (method not given) [1]: about 50%
- final purity (method not given) [1]: >90%
- crude mass [2]: 800 mg

Substance: [N-terminal(C18 diacid)]mimylin
- crude purity (method not given) [1]: about 55%
- final purity (method not given) [1]: >90%
- crude mass [3]: 700 mg
